Drawing on PMC7819943, “Rice protein-binding microarrays: a tool to detect cis-acting elements near promoter regions in rice”, this text covers binding signal for 42 sequences.

By UniProt entry, the sequences of proteins in these tests, tags left out.
UniProt Q0JBA9, entry or part of it: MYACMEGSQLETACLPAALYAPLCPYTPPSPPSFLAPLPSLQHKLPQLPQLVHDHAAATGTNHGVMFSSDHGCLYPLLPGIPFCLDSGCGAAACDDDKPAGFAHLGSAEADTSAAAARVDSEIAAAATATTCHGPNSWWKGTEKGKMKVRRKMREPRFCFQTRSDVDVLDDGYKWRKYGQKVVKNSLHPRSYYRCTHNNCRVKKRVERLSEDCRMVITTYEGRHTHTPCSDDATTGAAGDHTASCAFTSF

The other results are listed elsewhere or left out.

The target in this experiment is OsWRKY34 (Oryza sativa, UniProt Q0JBA9 1-250). Nature of the experiment: protein-binding microarray (RPBM); PBS, 2% BSA, 51.3 ng/ul salmon testes DNA, 50 uM zinc acetate, 200 nM TF, 25 C, 1 h; high values mean tight binding. Conditions: protein: recombinant; tags: N-terminal polyhistidine and DsRed monomer fusion (pET32a); label: CyDye5-dUTP incorporated in the synthesized complementary strand; 3' TTTTT single-stranded linker to array surface; dsDNA, one strand shown. A digest of the protocol:
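The binding signal is fluorescence intensity per array feature (arbitrary units). Readings came from an Axon 4000B scanner after a washed, 2% BSA-blocked, double-stranded custom Agilent array had been incubated for 1 h at 25 °C with 200 nM protein and 50 µM zinc acetate. The protein was a Ni–NTA-purified transcription factor fused N-terminally to polyhistidine and DsRed, expressed in E. coli BL21-CodonPlus.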
For the sequence “ATCCATTTATGTCTGTGTATGTTTGGTAGTACTACTTTTGCGGAGTCACCTAGTGCAG”, the binding signal was 9080 fluorescence intensity (a.u.). Consider “CTTCTTCTTGTTGTTCCACTCTTATTGTTCATCATCCTCCCGGAGTCACCTAGTGCAG”, for which the binding signal is 9820 fluorescence intensity (a.u.). As to “GGTTGCGTTGTTGCGGGCGTTGTTGCGGGCGGGCGGTCAGCGGAGTCACCTAGTGCAG”, the binding signal is 16600 fluorescence intensity (a.u.). For “TCTTGCCAACGTTTGACTGTTCGTTTTATATGAAAATTTTCGGAGTCACCTAGTGCAG”, the binding signal was 12400 fluorescence intensity (a.u.). Turning to “TTAATTGTTTGCCGTCTGCTAATCTTGATTCTTGCACAAACGGAGTCACCTAGTGCAG”, the binding signal is 8120 fluorescence intensity (a.u.). Regarding “CACCGCCGCTGCCACCGCACGCACGCCCGCCACTTCGCTGCGGAGTCACCTAGTGCAG”, the binding signal was 9290 fluorescence intensity (a.u.). For the sequence “TGAGGGACCTTTTGCCATTTTCTTTCTTTTGGTGGGACCCCGGAGTCACCTAGTGCAG”, the binding signal is 9750 fluorescence intensity (a.u.). Then “GTCCACCCGTTTCTTGCATGCCGCCTAAATAATTATGAAACGGAGTCACCTAGTGCAG”, with 11700 fluorescence intensity (a.u.).

With “GGCCCACCGTATTCGCTGAACCCATCACTTCCCGTACACCCGGAGTCACCTAGTGCAG”, the binding signal is 13400 fluorescence intensity (a.u.). On to “GCATATGTTTGACCGTTCATCTTATTTAAAAACTTTTATGCGGAGTCACCTAGTGCAG”, for which the binding signal was 8950 fluorescence intensity (a.u.). Turning to “CACACTGTGCACGCCATTCTTATCTTGTCTAGCTTCATCTCGGAGTCACCTAGTGCAG”, the binding signal was 16600 fluorescence intensity (a.u.). Then “CCCAGCTGCGTCGCCATTCTTCACCCACCATCCCAGTGCCCGGAGTCACCTAGTGCAG”, with 10300 fluorescence intensity (a.u.); and “GCCATTCCCCACCACCACCTGTCGACGGCGTACGACTACTCGGAGTCACCTAGTGCAG”, with 8320 fluorescence intensity (a.u.); and “TAGGTGTGTGGCTGCTTTTGTAACTTGTCTCTGAAAACGTCGGAGTCACCTAGTGCAG”, with 9670 fluorescence intensity (a.u.). With “CTGGAAGCACACACTCTTCTCTCTTCCCCGTATCATCCGGCGGAGTCACCTAGTGCAG”, the binding signal was 8260 fluorescence intensity (a.u.). Then “GCTCTTGGCGTCGTTGACATCCATTGCTAAGTCCCACGCTCGGAGTCACCTAGTGCAG”, with 10700 fluorescence intensity (a.u.); and “ATCTCTAATTCTATTGGGTGCATGTATTGTACTATTTATTCGGAGTCACCTAGTGCAG”, with 9280 fluorescence intensity (a.u.). The result for “AATATGTGGGTGATTTGTTGTAATGGAGTATGTGGTGGAGCGGAGTCACCTAGTGCAG” reads 10000 fluorescence intensity (a.u.); that for “AGGCACGCACTATTTTGCAATCCAATAGCTTAGATTTTTGCGGAGTCACCTAGTGCAG”, 8210 fluorescence intensity (a.u.); that for “ACCCACCACCATCTCTTCTCTCACTAACACCTCGGGACAACGGAGTCACCTAGTGCAG”, 9180 fluorescence intensity (a.u.).

As for “AGAGGGTTGGTGTAGTGGCAGGGGAGTGACGGTGCGCGGTCGGAGTCACCTAGTGCAG”, the binding signal was 9010 fluorescence intensity (a.u.).

As for “GTCCATTTAATTTCTAGTTTGTTATTGATTTCTATATAATCGGAGTCACCTAGTGCAG”, the binding signal was 8760 fluorescence intensity (a.u.). With “TTCTCGTGATCGATCGCTATATCGCTATAACCGCTGCTAACGGAGTCACCTAGTGCAG”, the binding signal is 9390 fluorescence intensity (a.u.). For the sequence “ATTGCCGTCCTCACCGTCGTTCGGCTTTGCCGGCGGCTGCCGGAGTCACCTAGTGCAG”, the binding signal is 12100 fluorescence intensity (a.u.). Consider “GGACATTTTATTTGGTCTTTGCTTAGGTTTTTGATTGTTTCGGAGTCACCTAGTGCAG”, for which the binding signal is 10900 fluorescence intensity (a.u.).

As for “CCTCTGGTCACGCATTCTACACAGAATCTCTGGTTTTCCCCGGAGTCACCTAGTGCAG”, the binding signal is 9500 fluorescence intensity (a.u.). As for “GGCCTGGGTAGGGTTGACCTTCTCTACTTCATGTAGGACTCGGAGTCACCTAGTGCAG”, the binding signal is 10800 fluorescence intensity (a.u.). Then “ACCCCATCCAGCATTTCGACCCATCACCATGGCATCAATCCGGAGTCACCTAGTGCAG”, with 9880 fluorescence intensity (a.u.); and “CCTCCACGCCCGCTCTCGGCCTACACCACAGACTCAAATCCGGAGTCACCTAGTGCAG”, with 8320 fluorescence intensity (a.u.).

For the sequence “CCTAAGTAGCTCGCTAGTGGGGAGAGGGGCGTGGCTGATGCGGAGTCACCTAGTGCAG”, the binding signal was 11100 fluorescence intensity (a.u.).

“ACTTCTGTGTTTTTCCTCTATGATCATAGCTGAAACCATTCGGAGTCACCTAGTGCAG”: the binding signal is 8470 fluorescence intensity (a.u.).

On to “TCTTTAGGTCTCTGCAGTCTACATACATCATTACCGAATTCGGAGTCACCTAGTGCAG”, for which the binding signal was 8780 fluorescence intensity (a.u.).

Regarding “CGTTACTGCCTGACGTCATCCACCTCTCCTGTTTCCGTTTCGGAGTCACCTAGTGCAG”, the binding signal was 8600 fluorescence intensity (a.u.).

As for “CTAGTACTCCGTATATCTCGATCGCAACCTCATGGCGTGACGGAGTCACCTAGTGCAG”, the binding signal was 11100 fluorescence intensity (a.u.). Consider “CTAGCCCGTTAACATTACTGTTCATCTCCCTATCCGTCTCCGGAGTCACCTAGTGCAG”, for which the binding signal is 9570 fluorescence intensity (a.u.). As for “CCATCTATCCCATTCACTGGCGTCCGCCGCCGCCGCTATGCGGAGTCACCTAGTGCAG”, the binding signal was 9390 fluorescence intensity (a.u.).

As for “CCCAATTGTTTGTCATGTAATTTGAGTCCACATCATCACACGGAGTCACCTAGTGCAG”, the binding signal was 9300 fluorescence intensity (a.u.). Regarding “TTCGAGCCATGTGTTTCGAGGTTTTTTTTTTATTTTCTCGCGGAGTCACCTAGTGCAG”, the binding signal is 8040 fluorescence intensity (a.u.). Then “ATGCCTACATCCTCCAAACAAACCAAACCCGTCGACACTTCGGAGTCACCTAGTGCAG”, with 8570 fluorescence intensity (a.u.); and “CTCTCCTCGATCTCTCCTGCAATCCTCATCACACAGCAAACGGAGTCACCTAGTGCAG”, with 9150 fluorescence intensity (a.u.); and “AGGAAATCACAAATCAGATGTTATAATGCCTAGTTTTTACCGGAGTCACCTAGTGCAG”, with 8110 fluorescence intensity (a.u.). For the sequence “TCGATCCTCAACATCTCCCTTTTTTTTCTCTTGTCCTTTCCGGAGTCACCTAGTGCAG”, the binding signal was 11500 fluorescence intensity (a.u.).
